These are yes or no findings as the source states them, for the method shown. Some binding calls cover weakened binding; strength is not graded here.

Assay [1] concerns the target T1, recombinant human TACI purified protein (Peprotech, 310-17) (human) (UniProt O14836).
T1 sequence (looked up): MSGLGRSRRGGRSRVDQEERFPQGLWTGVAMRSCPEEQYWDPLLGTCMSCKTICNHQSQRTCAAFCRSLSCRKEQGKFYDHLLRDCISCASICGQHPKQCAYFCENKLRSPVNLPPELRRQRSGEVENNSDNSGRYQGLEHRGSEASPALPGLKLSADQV
The assay is described as follows: ELISA of hybridoma supernatant on recombinant human TACI. Background: An ELISA detects its analyte on a solid surface through an enzyme-linked reagent.

Assay [2] deals with T2, Transmembrane activator and calcium modulator and cyclophilin ligand (CAML) interactor (TACI), on cells (human) (UniProt O14836).
T2 sequence (looked up): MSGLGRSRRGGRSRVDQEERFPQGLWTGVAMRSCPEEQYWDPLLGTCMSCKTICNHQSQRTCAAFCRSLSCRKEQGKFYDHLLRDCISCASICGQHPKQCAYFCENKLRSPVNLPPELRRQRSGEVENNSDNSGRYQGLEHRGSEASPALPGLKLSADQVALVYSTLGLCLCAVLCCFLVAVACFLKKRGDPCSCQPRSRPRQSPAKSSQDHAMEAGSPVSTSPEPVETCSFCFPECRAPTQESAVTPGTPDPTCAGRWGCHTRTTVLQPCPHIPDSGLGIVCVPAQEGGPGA
The assay can be described thus: flow cytometry on TACI positive SupT1 cells (FIG. 6b). For orientation: In flow cytometry, cells or beads pass a laser one at a time.

Assay [3] has as its target T2, Transmembrane activator and calcium modulator and cyclophilin ligand (CAML) interactor (TACI), on cells (human). The assay is described as follows: flow cytometry of hybridoma supernatant on SupT1 cells overexpressing TACI.

B1: 4B11 anti-TACI monoclonal antibody (mouse hybridoma) (antibody, V domains shown)
VH: EVQLQQSVAELVRPGASVKLSCTASGFNIKNTYIHWVKQRPEQGLEWIGKIDPANGNSEYAPKFQGKATITADTSSNTAYLQLSSLTSEDTTIYYCTSGYGAYWGQGTTLTVSS
VL: DIVLSQSPSSLAVSIGEKVTLSCKSSQSLLYSSNQKNYLAWFQQKPGQSLKLLIYWASTREFGVPDRFTGSGSGTDFTLTISSVKTEDLAVYYCQQYYTWTFGGGTKLEIK
notes: Tested as hybridoma supernatant from BalBC mice
For B1, the binding result in assay [1] was “binds”.

B2: 2G2 anti-TACI monoclonal antibody (mouse hybridoma) (antibody, V domains shown)
VH: QVTLKESGPGMLQPSQTLSLTCSFSGFSLSTFGMGVGWIRQPSGKGLEWLAHIWWDDAQYSNPALRSRLTISKDTSKNQVFLKIANVDTADTATYYCSRIHSYYSYDEGFAYWGQGTLVTVSS
VL: DIVMTQSQKFMSTTVGDRVSITCKASQNVGTAVAWYQQKPGQSPKLLIYSASNRYTGVPDRFTGSGSGTDFTLTISNMQSEDLADYFCQQYSSYRTFGGGTKLEIKR
notes: as for B1
For the molecule B2, the binding entry in assay [1] is “binds”.

B3: 1G6 anti-TACI monoclonal antibody (mouse hybridoma) (antibody, V domains shown)
VH: QVQLKQSGPGLVAPSQSLSITCTVSGFSLTSYGVDWVRQSPGKGLEWLGIIWGGGRTNYNSAFKSRLSISKDNSKSQVFLKMNSLQTDDTAMYYCASGDRAADYWGQGTSVTVSS
VL: DIVMTQSQKFMSTTVGDRVTITCKASQNVGTAVAWYQQKPGQSPKLLIYSASNRYTGVPVRFTGSGSGTDFTLTINNMQSEDLADYFCQQYSSYPLTFGAGTKLELK
notes: as for B1
For B3, the binding entry in assay [1] is “binds”.

B4: 2H6 anti-TACI monoclonal antibody (mouse hybridoma) (antibody, V domains shown)
VH: EVQLQQSGPELVKPGASVRMSCKASGYTFTNYVMHWVKQKPGQGLEWIGYINPSNDDTKYTEKFKGKATLTSDKSSSTAYMELSSLTSEDSAVYYCARGTHGDYYALDYWGQGTSVTVSS
VL: DIVLTQSPASLAVSLGQSVTISCRASESVEYYGTSLMQWYQQKPGQAPKLLIYGASNVESGVPARFSGSGSGTDFSLNIHPVEEDDIAMYFCQQSRKVPWTFGGGTKLEI
Regarding B4, the binding result in assay [2], in assay [1] and in assay [3] was “binds” each time.

The values above are taken from patent US20190352409A1 (AUTOLUS, published 2019).
